# Results published in publication PMC7729032, “Interaction interface in the C-terminal parts of centriole proteins Sas6 and Ana2” (Open Biology, 2020).
# These are yes or no findings as the source states them, for the method shown. For some of these results: Binding can be weak; no strength is given. Where a sequence is shown, tags or fusion partners need not be part of it. For some of these results: Binding seen in cells or lysates may run through a third protein.
# T1: GST-tagged Ana2-4D (phosphomimetic Ana2) (Drosophila) (UniProt Q9XZ31)
# T1 sequence: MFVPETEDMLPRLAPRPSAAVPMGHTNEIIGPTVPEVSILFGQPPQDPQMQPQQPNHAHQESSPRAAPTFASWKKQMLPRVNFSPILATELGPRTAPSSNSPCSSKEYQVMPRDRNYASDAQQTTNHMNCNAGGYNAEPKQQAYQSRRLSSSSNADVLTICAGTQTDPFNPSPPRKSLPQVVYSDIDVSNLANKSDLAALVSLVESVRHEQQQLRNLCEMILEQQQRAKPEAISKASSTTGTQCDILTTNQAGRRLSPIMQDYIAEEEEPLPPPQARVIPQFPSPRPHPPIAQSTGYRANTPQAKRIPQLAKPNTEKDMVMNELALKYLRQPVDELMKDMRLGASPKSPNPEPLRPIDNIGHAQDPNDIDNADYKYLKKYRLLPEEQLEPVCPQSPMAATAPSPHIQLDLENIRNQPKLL
# T2: MBP-Sas6 wild-type (Drosophila, UniProt Q9VAC8 1-472)
# T2 construct: Sas6, Drosophila, wild type; MBP from destination vector pKM596 (Gateway); No cleavage of MBP is described; also called Sas6-wt; source: E. coli Rosetta(DE3); in lysate (pull-down); purified on amylose resin and SEC (SEC, HDX-MS)
# T2 sequence (looked up): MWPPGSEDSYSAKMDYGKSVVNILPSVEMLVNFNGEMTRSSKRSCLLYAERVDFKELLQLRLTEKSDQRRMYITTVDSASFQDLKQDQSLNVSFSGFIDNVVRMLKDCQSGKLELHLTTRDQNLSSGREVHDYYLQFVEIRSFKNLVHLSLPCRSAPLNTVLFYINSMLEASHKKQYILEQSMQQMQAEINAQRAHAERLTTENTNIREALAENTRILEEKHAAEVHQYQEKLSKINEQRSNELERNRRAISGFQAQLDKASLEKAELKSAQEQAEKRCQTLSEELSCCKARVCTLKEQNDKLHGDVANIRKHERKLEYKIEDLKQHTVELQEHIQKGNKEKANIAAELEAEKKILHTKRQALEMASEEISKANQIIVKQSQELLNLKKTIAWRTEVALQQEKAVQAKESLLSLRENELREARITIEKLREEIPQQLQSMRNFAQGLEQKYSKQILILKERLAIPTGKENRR
# T3: GST-tagged Ana2 wild-type (Drosophila) (UniProt Q9XZ31)
# T3 sequence: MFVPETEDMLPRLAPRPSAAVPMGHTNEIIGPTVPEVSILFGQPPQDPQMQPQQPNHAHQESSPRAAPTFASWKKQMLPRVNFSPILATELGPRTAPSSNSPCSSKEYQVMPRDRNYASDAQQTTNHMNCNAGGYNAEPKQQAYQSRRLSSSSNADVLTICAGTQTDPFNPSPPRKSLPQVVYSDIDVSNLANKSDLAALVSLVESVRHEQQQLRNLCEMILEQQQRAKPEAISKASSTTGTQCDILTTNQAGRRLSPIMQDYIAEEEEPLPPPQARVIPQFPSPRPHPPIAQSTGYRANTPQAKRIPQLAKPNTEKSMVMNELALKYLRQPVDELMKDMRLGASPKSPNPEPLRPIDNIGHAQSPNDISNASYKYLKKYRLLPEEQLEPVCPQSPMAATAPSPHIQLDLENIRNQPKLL
# Key:
# [1] = target: T1, GST-tagged Ana2-4D (phosphomimetic Ana2) (Drosophila); test: pull-down; bait from lysate on Glutathione-Sepharose 4B, washed; lysate with MBP-tagged prey added, 1 h at 4°C; washes in 20 mM Tris–HCl pH 7.5, 250 mM NaCl, 5% glycerol, 1 mM DTT, 0.5% Triton; SDS–PAGE with PageBlue staining; only the target purified
# MBP-Sas6 wild-type = target: T2, MBP-Sas6 wild-type; test: as above
# [2] = target: T3, GST-tagged Ana2 wild-type (Drosophila); test: as above
# [3] = target: Gorab (bait, on glutathione resin); test: as above
# [4] = target: 69 aa Ana2-4D STAN motif fragment (Drosophila); test: HDX-MS; protein alone against SEC-purified complex; exchange in D2O buffer for 10 s, 1 or 5 min on ice; both purified
binding [1],binding [3],Molecule,other results
binds,,Sas6–Gorab complex (Drosophila | not stated),
no binding,,"Gorab (prey, MBP-tagged)",binding (MBP-Sas6 wild-type): binds; binding [2]: no binding
,no binding,"MBP-Ana2-4D (natural protein, Drosophila, UniProt Q9XZ31 1-420, looked up, Ana2, Drosophila; STAN motif serines 318, 365, 370 and 373 substituted by aspartic acid; MBP from destination vector pKM596; As prey against Gorab bait the MBP tag follows from the general methods of the pull-down; also called Ana2-4D-FL; source: E. coli Rosetta(DE3); purified on amylose resin and SEC (SEC, HDX-MS); in lysate (pull-down prey)) MFVPETEDMLPRLAPRPSAAVPMGHTNEIIGPTVPEVSILFGQPPQDPQMQPQQPNHAHQESSPRAAPTFASWKKQMLPRVNFSPILATELGPRTAPSSNSPCSSKEYQVMPRDRNYASDAQQTTNHMNCNAGGYNAEPKQQAYQSRRLSSSSNADVLTICAGTQTDPFNPSPPRKSLPQVVYSDIDVSNLANKSDLAALVSLVESVRHEQQQLRNLCEMILEQQQRAKPEAISKASSTTGTQCDILTTNQAGRRLSPIMQDYIAEEEEPLPPPQARVIPQFPSPRPHPPIAQSTGYRANTPQAKRIPQLAKPNTEKDMVMNELALKYLRQPVDELMKDMRLGASPKSPNPEPLRPIDNIGHAQDPNDIDNADYKYLKKYRLLPEEQLEPVCPQSPMAATAPSPHIQLDLENIRNQPKLL",
,no binding,"Ana2-wt (prey, MBP-tagged) (protein, UniProt Q9XZ31 1-420) MFVPETEDMLPRLAPRPSAAVPMGHTNEIIGPTVPEVSILFGQPPQDPQMQPQQPNHAHQESSPRAAPTFASWKKQMLPRVNFSPILATELGPRTAPSSNSPCSSKEYQVMPRDRNYASDAQQTTNHMNCNAGGYNAEPKQQAYQSRRLSSSSNADVLTICAGTQTDPFNPSPPRKSLPQVVYSDIDVSNLANKSDLAALVSLVESVRHEQQQLRNLCEMILEQQQRAKPEAISKASSTTGTQCDILTTNQAGRRLSPIMQDYIAEEEEPLPPPQARVIPQFPSPRPHPPIAQSTGYRANTPQAKRIPQLAKPNTEKSMVMNELALKYLRQPVDELMKDMRLGASPKSPNPEPLRPIDNIGHAQSPNDISNASYKYLKKYRLLPEEQLEPVCPQSPMAATAPSPHIQLDLENIRNQPKLL",
,,"MBP-Sas6 wild-type (protein, UniProt Q9VAC8 1-472) MWPPGSEDSYSAKMDYGKSVVNILPSVEMLVNFNGEMTRSSKRSCLLYAERVDFKELLQLRLTEKSDQRRMYITTVDSASFQDLKQDQSLNVSFSGFIDNVVRMLKDCQSGKLELHLTTRDQNLSSGREVHDYYLQFVEIRSFKNLVHLSLPCRSAPLNTVLFYINSMLEASHKKQYILEQSMQQMQAEINAQRAHAERLTTENTNIREALAENTRILEEKHAAEVHQYQEKLSKINEQRSNELERNRRAISGFQAQLDKASLEKAELKSAQEQAEKRCQTLSEELSCCKARVCTLKEQNDKLHGDVANIRKHERKLEYKIEDLKQHTVELQEHIQKGNKEKANIAAELEAEKKILHTKRQALEMASEEISKANQIIVKQSQELLNLKKTIAWRTEVALQQEKAVQAKESLLSLRENELREARITIEKLREEIPQQLQSMRNFAQGLEQKYSKQILILKERLAIPTGKENRR",binding [4]: binds
